These results are taken from publication PMC5633104 (The Journal of Biological Chemistry, 2017).

The chains behind the UniProt entries cited, without tags or fusion partners. Where a name states a change or a piece, a line headed by the entry shows the natural chain unless it says otherwise.
UniProt Q16665: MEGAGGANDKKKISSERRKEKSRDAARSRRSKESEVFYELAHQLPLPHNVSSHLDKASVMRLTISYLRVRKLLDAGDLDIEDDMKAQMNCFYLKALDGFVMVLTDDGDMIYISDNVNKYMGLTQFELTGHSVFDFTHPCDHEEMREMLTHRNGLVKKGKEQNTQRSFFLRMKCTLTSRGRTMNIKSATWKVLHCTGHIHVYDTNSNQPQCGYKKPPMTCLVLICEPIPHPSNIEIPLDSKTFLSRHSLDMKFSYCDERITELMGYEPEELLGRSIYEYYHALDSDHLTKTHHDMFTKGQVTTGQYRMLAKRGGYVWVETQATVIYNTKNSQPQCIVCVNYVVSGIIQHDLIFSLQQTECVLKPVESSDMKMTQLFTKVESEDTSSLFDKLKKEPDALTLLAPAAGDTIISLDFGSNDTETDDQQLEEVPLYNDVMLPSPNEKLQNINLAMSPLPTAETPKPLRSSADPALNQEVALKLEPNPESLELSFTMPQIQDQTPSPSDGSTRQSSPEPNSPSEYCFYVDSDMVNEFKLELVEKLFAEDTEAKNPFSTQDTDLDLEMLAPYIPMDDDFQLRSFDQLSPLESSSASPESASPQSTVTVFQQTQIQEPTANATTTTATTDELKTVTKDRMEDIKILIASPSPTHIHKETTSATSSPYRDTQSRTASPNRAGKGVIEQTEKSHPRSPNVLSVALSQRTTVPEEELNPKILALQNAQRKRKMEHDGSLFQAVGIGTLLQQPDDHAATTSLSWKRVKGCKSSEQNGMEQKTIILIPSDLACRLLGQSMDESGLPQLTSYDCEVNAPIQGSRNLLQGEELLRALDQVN
UniProt P35222: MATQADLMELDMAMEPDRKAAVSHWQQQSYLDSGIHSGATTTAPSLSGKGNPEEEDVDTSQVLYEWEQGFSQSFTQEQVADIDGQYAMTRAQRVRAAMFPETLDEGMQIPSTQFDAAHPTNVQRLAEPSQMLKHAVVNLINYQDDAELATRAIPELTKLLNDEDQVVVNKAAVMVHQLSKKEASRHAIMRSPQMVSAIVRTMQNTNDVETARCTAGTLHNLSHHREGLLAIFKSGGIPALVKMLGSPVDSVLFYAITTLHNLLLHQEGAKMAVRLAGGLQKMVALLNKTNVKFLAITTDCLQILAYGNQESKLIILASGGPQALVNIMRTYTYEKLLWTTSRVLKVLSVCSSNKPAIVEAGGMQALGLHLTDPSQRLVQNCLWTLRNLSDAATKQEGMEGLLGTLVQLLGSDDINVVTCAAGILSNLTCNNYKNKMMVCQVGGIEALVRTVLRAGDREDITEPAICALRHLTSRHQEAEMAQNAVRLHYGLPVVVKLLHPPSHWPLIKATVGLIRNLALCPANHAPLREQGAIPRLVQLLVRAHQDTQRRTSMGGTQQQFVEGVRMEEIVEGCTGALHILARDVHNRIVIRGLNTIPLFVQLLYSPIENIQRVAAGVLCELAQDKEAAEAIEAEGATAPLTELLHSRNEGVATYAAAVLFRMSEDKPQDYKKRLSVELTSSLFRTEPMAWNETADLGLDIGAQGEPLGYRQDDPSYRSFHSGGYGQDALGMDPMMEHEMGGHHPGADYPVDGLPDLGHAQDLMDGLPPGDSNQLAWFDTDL

No constants are given. Whether binding was seen depends on the method and setting. Binding seen in cells or lysates may run through a third protein. Some binding calls cover weakened binding; strength is not graded here.

Experiment [1] concerns the target Hif1α, endogenous in human intestinal epithelial cells (human (endogenous in HT-29 Cl-19a and FHC CRL-1813)) (UniProt Q16665). The experiment in a line: co-IP; lysates (RIPA buffer) of HT-29 Cl-19a or CRL-1813 (FHC) cells, unstimulated or treated with EGF, IL-2, Src inhibitor J67242 or Jak3 inhibitor CP-690550; IP then IB with the indicated antibodies.
The target is the same in experiment [2]. The experiment in a line: condition: only cells co-stimulated with EGF and IL-2; co-IP; as a2, cells stimulated with EGF in the presence of IL-2.

For “HA-tagged β-catenin–Y30F,Y64F,Y86F (from UniProt P35222 1-781)”, the binding result in experiment [1] is reported as “binds”. Same read-out and setting: under “Tyr654-phosphorylated β-catenin, endogenous in human intestinal epithelial cells (from UniProt P35222 1-781)” stands “binds”. Take “HA-tagged β-catenin–WT (from UniProt P35222 1-781)”: the binding result in experiment [1] was “binds”; in experiment [2], “no binding”.
